# In all, about 360,000 compounds went through this assay and about 7,500 (2.1%) were called active. The inconclusive results got no clear call from the source; some entries with a clear call stand among them for comparison. The call rests on the fitted dose curve; in most records, active means well fitted inhibition curve with a large enough effect; inconclusive means small, poorly fitted or top-dose-only effect, or effect the other way; inactive means flat fitted curve, though single readings scatter. Where the call is inconclusive, the potency comes from a doubtful curve fit.
# Assay: Nrf2 qHTS screen for inhibitors; further: nearly all actives have a fitted effect of over 60% in size
# Conditions: A549 ARE-Fluc reporter, luciferase luminescence, 18-24 h; series mostly up to 46 µM
# Summary of the method: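 Two sequential reads on A549 ARE_Fluc cells exposed to compound for 18-24 h: a CellTiter-Fluor fluorescence read for viability, then a luciferase luminescence read for Nrf2/ARE activity.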
# Potency means the concentration at half of the fitted maximal effect.
row,Compound,Potency
1,Cc1ccc(C(=O)Nc2nc(C(C)(C)C)cs2)s1,"inconclusive: 6.51 µM [activator, single point]"
2,Cc1ccccc1C(=O)c1cccn1CC(=O)NCC1CCCO1 (centres undefined),"inconclusive: 2.31 µM [falling, partial curve, poor fit]"
3,O=C(Cn1cc(SCc2cccc(F)c2)c2ccccc21)N1CCCC1,"inconclusive: 2.91 µM [activator, full curve, poor fit]"
4,Cc1cc2oc(C(=O)Nc3sc4c(c3C(=O)NCc3ccco3)CCC4)cc(=O)c2cc1C,inactive
5,COc1cc2c(cc1OC)C(C)N(C(=S)NC(=O)c1ccccc1)CC2 (centres undefined),"inconclusive: 18.4 µM [falling, single point]"
6,CCCc1cc(=O)[nH]c(SCC(=O)Nc2ccc(C)c(S(=O)(=O)N3CCCCC3)c2)n1,"inconclusive: 3.26 µM [falling, full curve]"
7,COc1ccc(OCCCC(=O)Nc2ccc3c(c2)OCO3)cc1,"inconclusive: 16.4 µM [falling, partial curve, poor fit]"
8,Cn1c(SCC(=O)N2CCOCC2)nnc1-c1ccncc1,"inconclusive: 5.17 µM [falling, full curve, poor fit]"
9,CCCCCC(=O)Nc1ccc2ccccc2c1,"inconclusive: 9.2 µM [activator, partial curve, poor fit]"
10,Cc1ccc(O)c(NC(=O)CSc2n[nH]c(C)c2[N+](=O)[O-])c1,inactive
11,CNC(=S)N/N=C/c1cccc(OCc2ccccc2F)c1,"inconclusive: 29.1 µM [falling, single point]"
12,Cc1ccc(NC(=O)CSc2ncnc3ccccc23)cc1S(=O)(=O)N1CCCCC1,active: 14.6 µM
13,COc1ccc(C(=O)Nc2sc(C)c(-c3ccccc3)c2C#N)cc1OC,"inconclusive: 16.4 µM [falling, partial curve, poor fit]"
14,N=C1/C(=C\c2ccc(OC(=O)c3ccco3)cc2)C(=O)N=C2SC(N3CCCCC3)=NN12,inactive
15,O=C(COc1ccc(S(=O)(=O)N2CCCC2)cc1)Nc1ccc2c(c1)OCCO2,"inconclusive: 0.146 µM [falling, full curve, poor fit]"
16,Cc1ccccc1S(=O)Cc1ccc(C(=O)NC2CCCCCC2)o1 (centres undefined),inactive
17,O=C(Nc1cccnc1Cl)c1ccc2c(Cl)c3c(nc2c1)CCC3,"inconclusive: 1.84 µM [activator, full curve]"
18,COc1ccc(CCNC(=O)CN(c2ccccc2OC)S(=O)(=O)c2ccc(C)cc2)cc1,"inconclusive: 29.1 µM [falling, single point]"
19,CC(C(=O)OCc1nnc(-c2ccccc2)o1)N1C(=O)C2CCCCC2C1=O (centres undefined),"inconclusive: 7.31 µM [activator, partial curve]"

# In a second layout: entries from further up.
row	Compound	Potency
5	COc1cc2c(cc1OC)C(C)N(C(=S)NC(=O)c1ccccc1)CC2 (centres undefined)	inconclusive: 18.4 µM [falling, single point]
6	CCCc1cc(=O)[nH]c(SCC(=O)Nc2ccc(C)c(S(=O)(=O)N3CCCCC3)c2)n1	inconclusive: 3.26 µM [falling, full curve]
7	COc1ccc(OCCCC(=O)Nc2ccc3c(c2)OCO3)cc1	inconclusive: 16.4 µM [falling, partial curve, poor fit]
8	Cn1c(SCC(=O)N2CCOCC2)nnc1-c1ccncc1	inconclusive: 5.17 µM [falling, full curve, poor fit]
9	CCCCCC(=O)Nc1ccc2ccccc2c1	inconclusive: 9.2 µM [activator, partial curve, poor fit]

# Source: PubChem BioAssay AID504444 (National Center for Advancing Translational Sciences (NCATS), 2011)
